According to PubChem BioAssay AID463183 (Sanford-Burnham Center for Chemical Genomics, 2010):
Some of the results follow. Shown are side measurements of this screen, not its main read-out; they come without a call. Most of these compounds were active or inconclusive in the main read-out, so they are no random draw.

Assay: blockers of oleate-driven lipid droplets in liver cells – imaging, AML12 mouse hepatocytes, single concentration, high-content, confirmation (AID 463183);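 note: cells counted after overnight compound exposure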
Conditions: BODIPY lipid droplet imaging, measured here: cell count, cytotoxicity, at 5.2 µM, droplets induced with 100 µM oleic acid

Row | SMILES | cell count [cells]
1 | COc1ccccc1CNS(=O)(=O)c1ccc2c(c1)CC(C)N2C(=O)C1CCC1 (stereo unspecified) | 1530
2 | CC(C)Oc1ccc(C(=O)OC(C)C(=O)Nc2nc(-c3cccc([N+](=O)[O-])c3)cs2)cc1 (stereo unspecified) | 1530
3 | CCc1nn2c(N3CCOCC3)cc(C)nc2c1-c1ccc(F)cc1 | 1570
4 | CN(C1=C(NC(=O)c2ccc(Cl)cc2)C(=O)c2ccccc2C1=O)c1ccccc1 | 1580
5 | O=C(COc1ccc(Cl)cc1)Nc1ccc2c(c1)C(=O)NC2=O | 1550
6 | CCC(C(=O)NCc1cccc(C)c1)n1nc(C)c2c(C)n(-c3ccccc3)nc2c1=O (stereo unspecified) | 1570
7 | COc1ccc(C(=O)OCC(=O)NC(C)CCc2ccccc2)cc1OC (stereo unspecified) | 1580
8 | CCn1cc(C(=O)NCc2ccc(Cl)cc2)c(=O)c2cc(S(=O)(=O)N(C)C)ccc21 | 1630
9 | Cc1cc(C(=O)CN2C(=O)c3ccccc3S2(=O)=O)c(C)n1-c1ccccc1 | 1580
10 | Cc1ccc(C2/C(=C(/O)c3cnn(-c4ccccc4)c3C)C(=O)C(=O)N2CCCN2CCOCC2)o1 (stereo unspecified) | 1530
11 | CCOc1ccc(-c2csc(NNC3=NCCCCC3)n2)cc1 | 1630
12 | CCOc1ccc(CCNC(=O)c2cc(-c3ccccc3)c(N3CCOCC3)s2)cc1OCC | 1660
13 | O=C(Nc1ccc(-c2csc(Nc3ccc(Cl)cc3)n2)cc1)c1cccc(C(F)(F)F)c1 | 1560
14 | CCOc1ccc(CN(C)C(=O)CNC(=O)c2ccc(Br)o2)cc1OC | 1510
15 | CCN(CC)S(=O)(=O)c1ccc(N2C(=O)CC2(/C=C/c2ccccc2)C(=O)NC2CCCC2)cc1 (stereo unspecified) | 1560
16 | CC(C)(C)NC(=O)CSc1nc2ccc(Nc3nc(N4CCOCC4)nc(N4CCOCC4)n3)cc2s1 | 1620

A few values from the results shown.
cell count [cells] with CN(C1=C(NC(=O)c2ccc(Cl)cc2)C(=O)c2ccccc2C1=O)c1ccccc1 reads 1580
cell count [cells] with CCn1cc(C(=O)NCc2ccc(Cl)cc2)c(=O)c2cc(S(=O)(=O)N(C)C)ccc21 reads 1630
